From patent US20060189679A1, “C10 cyclopropyl ester substituted taxane compositions” (priority 2005, published 2006)
At least one structure is not confirmed: it was looked up by name or label, or the drawing left a doubt.

What was measured:
[1] = system: 786-0 human renal carcinoma xenografts; conditions: mouse, in vivo
[2] = system: SW480 human colon carcinoma xenografts; conditions: mouse, in vivo

CC(=O)O[C@@]12CO[C@@H]1C[C@H](O)[C@@]1(C)C(=O)[C@H](OC(=O)C3CC3)C3=C(C)[C@@H](OC(=O)[C@H](O)[C@@H](NC(=O)OCC(C)C)c4ccco4)C[C@@](O)([C@@H](OC(=O)c4ccccc4)C12)C3(C)C (some centres unmarked) [Compound 3102]
slowing of tumor growth vs vehicle control (statistical analysis, words) [1]: significantly slow the growth of 786-0 tumors | controlling tumor growth [2]: similarly effective in controlling tumor growth
